Results: patent US20200300849A1
No constants are given. Whether binding was seen depends on the method and setting. Some results given as binding are weak or reduced against the parent protein; the word gives no strength. Values belong to the binder of their own block, whether it stands above or below them.

Experiments:
[1] = biological target: T1, tetraspanin CD9 on exosomes in mouse bronchoalveolar lavage fluid (mouse) (UniProt P40240); experiment: electrical impedance spectroscopy, Bode phase plot
T1 sequence (looked up): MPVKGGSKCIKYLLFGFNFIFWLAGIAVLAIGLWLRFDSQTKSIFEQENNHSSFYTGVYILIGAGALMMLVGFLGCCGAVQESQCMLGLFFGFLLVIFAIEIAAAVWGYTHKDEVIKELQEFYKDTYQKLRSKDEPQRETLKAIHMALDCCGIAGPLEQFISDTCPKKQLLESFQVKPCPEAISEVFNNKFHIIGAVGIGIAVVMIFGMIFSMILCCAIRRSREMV

[2] = biological target: T1, tetraspanin CD9 on exosomes in mouse bronchoalveolar lavage fluid (mouse); experiment: dynamic light scattering, hydrodynamic diameter vs. time
[3] = biological target: T1, tetraspanin CD9 on exosomes in mouse bronchoalveolar lavage fluid (mouse); experiment: dynamic light scattering of mouse BALF exosomes mixed with nanoplatform, 298K
[4] = biological target: T2, tetraspanin CD63 on exosomes in mouse bronchoalveolar lavage fluid (mouse) (UniProt P41731); experiment: electrical impedance spectroscopy, Bode phase plot
T2 sequence (looked up): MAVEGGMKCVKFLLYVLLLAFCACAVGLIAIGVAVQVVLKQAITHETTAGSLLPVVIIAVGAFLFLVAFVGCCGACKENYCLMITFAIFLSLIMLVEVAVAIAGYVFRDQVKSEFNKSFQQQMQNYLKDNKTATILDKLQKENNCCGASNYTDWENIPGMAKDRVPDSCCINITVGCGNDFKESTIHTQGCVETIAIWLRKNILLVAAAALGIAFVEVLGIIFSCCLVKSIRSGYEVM

[5] = biological target: T2, tetraspanin CD63 on exosomes in mouse bronchoalveolar lavage fluid (mouse); experiment: dynamic light scattering, hydrodynamic diameter vs. time
[6] = biological target: T2, tetraspanin CD63 on exosomes in mouse bronchoalveolar lavage fluid (mouse); experiment: dynamic light scattering of mouse BALF exosomes mixed with nanoplatform, 298K

binding [1]: binds
binding [2]: binds
binding [3]: binds
B1: Fe/Fe3O4-nanoplatform bearing peptide aptamers for binding of the tetraspanin CD9 (…, SEQ ID NO:34) (peptide)
peptide: VQEFYKDTYNKLKTK
modifications: attached to Fe/Fe3O4 nanoparticle (75+/-5 peptide aptamers per nanoplatform)

binding [4]: binds
binding [5]: binds
binding [6]: binds
B2: Fe/Fe3O4-nanoplatform bearing peptide aptamers for binding of the tetraspanin CD63 (…, SEQ ID NO:35) (peptide)
peptide: LNNHTASILNRMQANF
modifications: attached to Fe/Fe3O4 nanoparticle (75+/-5 peptide aptamers per nanoplatform)
